Test results: patent US20200308220A1 (priority 2015, published 2020)

Legend:
[1] = general procedure: peptide synthesis; chlorotrityl chloride resin; H-β-Ala-2-chlorotrityl resin; p-methylbenzhydrylamine resin; HBTU/Cl-HOBt/DIPEA (1:1:2); DIC/Cl-HOBt; HBTU/DIPEA in solution; conditions: for conjugation yield: conjugation step
[2] = general procedure: peptide synthesis; chlorotrityl chloride resin; HBTU/Cl-HOBt/DIPEA (1:1:2); DIC/Cl-HOBt; HBTU/DIPEA in solution; conditions: whole synthesis
[3] = general procedure: peptide synthesis; p-methylbenzhydrylamine resin; HBTU/Cl-HOBt/DIPEA (1:1:2); DIC/Cl-HOBt; HBTU/DIPEA in solution; conditions: whole synthesis
[4] = general procedure: peptide synthesis; H-β-Ala-2-chlorotrityl resin; HBTU/Cl-HOBt/DIPEA (1:1:2); DIC/Cl-HOBt; HBTU/DIPEA in solution; conditions: whole synthesis

PEPTIDE1{[Dmt].[dR].F.K.[bAla].[NH-TEMPO]}$$$$V2.0
conjugation yield [1]: 63% yield

Fmoc-Dmt-D-Arg(Pbf)-Phe-Lys(Boc)-OH
crude yield [2]: yield 85%

PEPTIDE1{[Dmt].[dR].F.[Lys(NH-TEMPO)].[am]}$$$$V2.0
step yield ([1]; coupling step): yield 100%

H-D-Arg-Dmt-Lys(TEMPO)-Phe-NH2
crude yield [3]: yield of 80%

Fmoc-[dR](Pmc)[Dmt]K(Boc)F[βAla]-OH
crude purity (method not given) [4]: >95%

H-D-Arg-Dmt-Lys-Phe-NH—(CH2)2—CO—NH-TEMPO
conjugation yield [1]: 81.5% yield

For part of these data: HELM strings list residues between dots; [ac] is acetyl, [am] amide, other brackets name non-standard units. [ ]: non-standard residue; d: D form. The star is where a group is joined. Pmc = Cc1c(C)c(S(=O)(=O)*)c(C)c2c1OC(C)(C)CC2; Dmt = Cc1cc(O)cc(C)c1C[C@H](N)C(=O)O; Fmoc = O=C(OCC1c2ccccc2-c2ccccc21)*; Boc = CC(C)(C)OC(=O)*; βAla = NCCC(=O)O
